Literature values as cited in patent US20100016256A1, “Taxane Compounds for Treating Eye Disease” (priority 2008, published 2010).

Conditions: unconjugated taxane; cited from earlier work

In the case of `CC(=O)O[C@H]1C(=O)[C@@]2(C)[C@H]([C@H](OC(=O)c3ccccc3)[C@]3(O)C[C@H](OC(=O)[C@H](O)[C@@H](NC(=O)c4ccccc4)c4ccccc4)C(C)=C1C3(C)C)[C@]1(OC(C)=O)CO[C@@H]1C[C@@H]2O` [paclitaxel], the water solubility is listed as “less than 0.004 mg/ml”.
